Laboratory results: patent US20090054414A1, “Rufinamide for the Treatment of Post-Traumatic Stress Disorder” (SYNOSIA THERAPEUTICS, priority 2007, published 2009)

Experiments:
[1] = test system: male OF-1 “intruder” mice; assay: Intruder test (social withdrawal of intruder mice); format: in vivo, mouse; details: 1/3/10 mg/kg oral; rectal temperature
Procedure: Rufinamide, a Na-channel blocker and anti-epileptic agent, and carbamazepine, an anticonvulsant employed to treat bipolar disorder, were given to male OF-1 “intruder” in oral-doses of 1/3/10 mg/kg, 1 hr before the animals were confronted with an individually-housed, aggressive, male OF-1 resident mouse. […] This increase in social investigation (sociotropic effect) was accompanied by a decrease in the frequency and duration of defensive ambivalence probably through competitive inhibition. No signs of motor stimulation were detected.
The Intruder test duplicates a territorial encounter between a territory holder (aggressive male) and a subordinate “intruder” mouse. […] In this test the intruders receive the treatment whereas the residents remain untreated. (Dixon, A. K., Huber, C., Lowe, D. J. Clin. Psychiatry. 55 (9) Suppl B, 4-7 (1994)). For purposes of this study, rufinamide and carbamazepine were given orally to intruder mice 1 hr before being introduced singly to aggressive residents using doses of ⅓ and 10 mg/kg.
Over 60 ethological elements describing the social and non-social behaviour of mice based on the ethogram originally proposed by Grant and Mackintosh (Grant, E. C. Mackintosh, J. H. Behaviour 21: 246-259 (1963) ) and classified according to 9 behavioural categories (Dixon, A. K., Huber, C., Fisch, H. U. Adv. Study. Behaviour. 19: 171-204 (1990)) form the rodent ethogram as used in this test (FIG. 3).

[2] = test system: Male OF1/IC mice; assay: modified stress-induced hyperthermia (SIH) test; format: in vivo, mouse
Procedure: Rufinamide was tested in the modified stress-induced model of anxiety. The stress-induced hyperthermia test in mice is a paradigm developed several years ago to model the expression of autonomic hyperactivity in anxiety (Lecci A, Borsini F, Volterra G, Meli A. (1990) Pharmacological validation of a novel model of anticipatory anxiety in mice. Psychopharmacology; 101:255-61.; Spooren W P, Schoeffter P, Gasparini F, Kuhn R, Gentsch C. (2002) Pharmacological and endocrinological characterisation of stress-induced hyperthermia in singly housed mice using classical and candidate anxiolytics (LY314582, MPEP and NKP608). Eur J Pharmacol; 435:161-70.;Zethof T J J, van der Heyden J A M, Tolboom J B M, Olivier B (1994) Stress-induced hyperthermia in mice: a methodological study. Phys. Behav. 55:109-115.). […] Pharmacol Biochem Behav 72:179-188.
Male OF1/IC mice (MA205 Tiger code) were obtained several days prior to behavioural testing from Iffa Credo (L'Arbresle, France; 18-20 g) and housed in groups of 15 animals per cage (macrolon cages 42H26H15 cm, Type 4). The animals were individually housed (macrolon cage: 26H21H14 cm, Type 2) 24 h before testing. The day preceding the experiment, all cages were transferred to the testing room—and background noise (radio) was used during the light cycle. Both the animal room and the laboratory were temperature controlled and equipped with artificial illumination (L12:D12; lights on 06:00). Mice always had ad libitum access to water and food (Ecosan, Eberle Nafag A G, Gossau, Schweiz).
The test procedure for the modified stress-induced hyperthermia was adapted from van der Heyden et al. (1997). Rectal temperature was measured in each mouse twice, i.e. at t=0 min (T1) and t=+15 min (T2). The difference in temperature (T2-T1) was considered to reflect the stress-induced hyperthermia (SIH). […] In addition, a comparison between T1 in vehicle-treated mice and in animals treated with a given dose of a test-compound was used, to measure whether a test-compound affected body temperature alone.
Rectal temperature was measured to the nearest 0.1° C. by an ELLAB instruments (Copenhagen, Denmark) thermometer Model DM 852 by inserting a lubricated thermistor probe model PRA-22002-A (ELLAB, Copenhagen, Denmark) (2.2 mm diameter) 20 mm into the rectum; the mouse was hand held at the base of the tail during this determination and the thermistor probe was left in place for 15 s.
All drugs were made up fresh and dissolved in vehicle (0.5% methylcellulose) and administered per os (p.o.) in a volume of 10 ml/kg.
All data was analysed using a one-way analysis of variance (ANOVA) followed where appropriate by Dunnett test of multiple comparisons. The level of significance was set at p<0.05.

Row | SMILES | basal body temperature of intruder mice [1] | post-encounter hyperthermia of intruder mice [1] | baseline body temperature T1 ([2]; first experiment, rufinamide 3-100 mg/kg p.o., CDZ 10 mg/kg p.o., pair-wise comparisons) | basal temperature T1 ([2]; pooled data of all 3 experiments, all treatment groups vs control) | basal body temperature T1 ([2]; second experiment, rufinamide 0.3-300 mg/kg p.o., CDZ 10 mg/kg p.o.) | basal body temperature T1 ([2]; third experiment, rufinamide 25-50-100-200 mg/kg p.o.)
1 | NC(=O)c1cn(Cc2c(F)cccc2F)nn1 [rufinamide, 1-(2,6-difluorobenzyl)-1H-1,2,3-triazole-4-carboxamide] | did not alter | nor alter | neither rufinamide nor the positive control CDZ significantly altered | no treatment group was significantly different from control animals | Neither rufinamide nor CDZ significantly modified | did not modify
2 | NC(=O)N1c2ccccc2C=Cc2ccccc21 [carbamazepine] | did not alter | nor alter |  |  |  | 
